According to publication doi:10.1101/2022.10.09.511391:
No constants are given. Whether binding was seen depends on the method and setting. Binding seen in cells or lysates may run through a third protein. Here binding means that the protein was enriched with, or labelled near, the bait; the list need not be complete. Sequences can lack the tags named with a protein.

Biological target: T1, Myc-APEX2-TRB3 (UniProt Q8K4K2)
T1 sequence: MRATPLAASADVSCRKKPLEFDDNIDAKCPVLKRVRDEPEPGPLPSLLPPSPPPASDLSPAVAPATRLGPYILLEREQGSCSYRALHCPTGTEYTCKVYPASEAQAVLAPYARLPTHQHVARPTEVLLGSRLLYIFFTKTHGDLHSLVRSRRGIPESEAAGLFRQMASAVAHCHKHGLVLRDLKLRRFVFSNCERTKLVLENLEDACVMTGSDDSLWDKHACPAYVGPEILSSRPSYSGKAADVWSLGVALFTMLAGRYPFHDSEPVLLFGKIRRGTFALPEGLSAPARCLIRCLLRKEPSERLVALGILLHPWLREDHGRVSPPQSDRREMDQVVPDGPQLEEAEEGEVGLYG
Experiment: proximity labelling

B1: Flightless-homolog 1 (Fli1), endogenous in Min6 cells (protein, UniProt Q9JJ28 1-1271)
chain: MEATGVLPFVRGVDLSGNDFKGGYFPENVKAMTSLRWLKLNRTGLCYLPEELAALQKLEHLSVSHNHLTTLHGELSSLPSLRAIVARANSLKNSGVPDDIFKLDDLSVLDLSHNQLTECPRELENAKNMLVLNLSHNGIDSIPNQLFINLTDLLYLDLSENRLESLPPQMRRLVHLQTLVLNGNPLLHAQLRQLPAMMALQTLHLRNTQRTQSNLPTSLEGLSNLSDVDLSCNDLTRVPECLYTLPSLRRLNLSSNQIAELSLCIDQWVHLETLNLSRNQLTSLPSAICKLTKLKKLYLNSNKLDFDGLPSGIGKLTSLEEFMAANNNLELIPESLCRCPKLKKLVLNKNRLVTLPEAIHFLTEIQVLDVRENPSLVMPPKPADRTAEWYNIDFSLQNQLRLAGASPATVAAAAAVGSGSKDPLARKMRLRRRKDSAQDVQAKQVLKGMSDVAQEKNKNQEESIDARAPGGKVRRWDQGLEKPRLDYSEFFTEDVGQLPGLTIWQIENFVPVLVEEAFHGKFYEADCYIVLKTFLDDSGSLNWEIYYWIGGEATLDKKACSAIHAVNLRNYLGAECRTVREEMGDESEEFLQVFDNDISYIEGGTASGFYTVEDTHYVTRMYRVYGKKNIKLEPVPLKGSSLDPRFVFLLDQGLDIYVWRGAQATLSNTTKARLFAEKINKNERKGKAEITLLVQGQEPPGFWDVLGGEPSEIKNHVPDDFWPPQPKLYKVGLGLGYLELPQINYKLSVEHKKRPKVELMPGMRLLQSLLDTRCVYILDCWSDVFIWLGRKSPRLVRAAALKLGQELCGMLHRPRHTVVSRSLEGTEAQVFKAKFKNWDDVLTVDYTRNAEAVLQGQGLSGKVKRDTEKTDQMKADLTALFLPRQPPMPLAEAEQLMEEWNEDLDGMEGFVLEGRKFTRLPEEEFGHFYTQDCYVFLCRYWVPVEYEEEEKTEDKEGKASAEAREGEEAAAEAEEKQPEEDFQCIVYFWQGREASNMGWLTFTFSLQKKFESLFPGKLEVVRMTQQQENPKFLSHFKRKFIIHRGKRKVTQGTLQPTLYQIRTNGSALCTRCIQINTDSSLLNSEFCFILKVPFESEDNQGIVYAWVGRASDPDEAKLAEDILNTMFDASYSKQVINEGEEPENFFWVGIGAQKPYDDDAEYMKHTRLFRCSNEKGYFAVTEKCSDFCQDDLADDDIMLLDNGQEVYMWVGTQTSQVEIKLSLKACQVYIQHTRSKEHERPRRLRLVRKGNEQRAFTRCFHAWSTFRQAPA
binding: binds
